Reference: patent US20120329784A1, “COMPOUNDS AND METHODS” (priority 2010, published 2012)
Structures can show the parent of a compound that is named as a salt. Some results were stated once for a whole list of compounds, not compound by compound.

Target: T1, Full length human TNNI3K (hTNNI3K) (Homo sapiens, UniProt Q59H18)
T1 construct: His-MBP-TEV-Full length human TNNI3K (hTNNI3K); His (N); MBP (N); TEV cleavage site (N); made in house; host or cells: baculovirus expression system (printed 'Baculokinase system')
T1 sequence (Q59H18 1-835): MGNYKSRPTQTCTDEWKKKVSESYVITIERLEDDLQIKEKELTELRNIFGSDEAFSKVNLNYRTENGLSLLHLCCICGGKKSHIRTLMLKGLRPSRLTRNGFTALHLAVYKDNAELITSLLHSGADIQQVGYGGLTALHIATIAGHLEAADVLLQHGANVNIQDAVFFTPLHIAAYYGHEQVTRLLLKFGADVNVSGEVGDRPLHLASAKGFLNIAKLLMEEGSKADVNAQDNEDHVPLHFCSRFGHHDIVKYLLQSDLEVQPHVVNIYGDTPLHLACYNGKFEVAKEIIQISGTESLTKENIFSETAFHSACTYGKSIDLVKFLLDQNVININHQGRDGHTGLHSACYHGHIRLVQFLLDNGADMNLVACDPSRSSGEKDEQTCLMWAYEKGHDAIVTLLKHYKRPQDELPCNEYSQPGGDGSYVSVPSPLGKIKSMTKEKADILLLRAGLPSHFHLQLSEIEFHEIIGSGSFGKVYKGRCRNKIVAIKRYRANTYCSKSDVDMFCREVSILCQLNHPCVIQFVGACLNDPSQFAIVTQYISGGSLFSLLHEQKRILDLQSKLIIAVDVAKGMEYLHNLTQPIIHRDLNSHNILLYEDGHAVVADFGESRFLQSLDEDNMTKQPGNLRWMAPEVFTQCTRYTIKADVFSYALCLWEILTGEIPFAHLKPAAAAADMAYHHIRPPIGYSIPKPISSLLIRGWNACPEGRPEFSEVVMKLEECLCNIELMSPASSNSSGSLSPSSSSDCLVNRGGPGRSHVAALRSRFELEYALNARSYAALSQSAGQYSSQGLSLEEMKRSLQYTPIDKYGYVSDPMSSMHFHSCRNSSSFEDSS
Test: Fluorescent polarization assay of compound inhibition on hTNNI3K ATP binding (Biological Assay Method I)
Settings: mean of a minimum of 2 experiments; displacement of fluorescent ligand from hTNNI3K ATP binding pocket; 60 min at rt
Description: Materials: His-MBP-TEV-Full length human TNNI3K (hTNNI3K) was expressed in Baculokinase system and purified from amylase affinity column followed by Superdex200. […] The preparation of this fluorescent ligand is disclosed in U.S. Provisional Patent Application No. 61/237,815 filed Aug. 28, 2009, the disclosure of which is incorporated by reference herein. The other buffer components, including MgCl2 (Catalog Number M1028), Bis-Tris (Catalog Number B7535), DTT (Catalog Number D9779) and Chaps (Catalog Number C3023) were purchased from Sigma-Aldrich.
A fluorescent polarization assay was used to determine does response of compound inhibition on hTNNI3K ATP binding.
Solution 2 was formed by mixing 53.8 μL of 2.6 μM hTNNI3K with a 6946.2 μL aliquot of Solution 1 (the above 5-({[2-({[3-({4-[(5-hydroxy-2-methylphenyl)amino]-2-pyrimidinyl}amino)phenyl]carbonyl}amino)ethyl]amino}carbonyl)-2-(6-hydroxy-3-oxo-3H-xanthen-9-yl)benzoic acid solution) to make up a 7 mL of mixture of hTNNI3K and 5-({[2-({[3-({4-[(5-hydroxy-2-methylphenyl)amino]-2-pyrimidinyl}amino)phenyl]carbonyl}amino)ethyl]amino}carbonyl)-2-(6-hydroxy-3-oxo-3H-xanthen-9-yl)benzoic acid (Solution 2).
Fifty (50) nL of inhibitors in DMSO (or DMSO controls) were stamped into a 384-well low volume Greiner black plate, followed by addition of 5 μL of Solution 1 to column 18 and 5 μL Solution 2 to columns 1-17 and 19-24 of the plate. […] After that, the fluorescent polarization was measured on Analyst (ex/em: 485/530 nm, Dichroic: 505). For dose response experiments, normalized data were fit by ABASE/XC50 and pXC50=(log((b−y)/(y−a)))/d−log(x), where x is the compound concentration and y is the % activity at specified compound concentration, a is the minimum % activity, b is the maximum % activity, and d is the Hill slope.
The pXC50s are averaged to determine a mean value, for a minimum of 2 experiments.

pXC50, ≥ 6.0:
CNS(=O)(=O)c1ccc2c(c1)N(c1cc(Nc3cc(C)cc(Br)c3)ncn1)CC2 [Example 265, 1-{6-[(3-bromo-5-methylphenyl)amino]-4-pyrimidinyl}-N-methyl-2,3-dihydro-1H-indole-6-sulfonamide trifluoroacetate]
CNS(=O)(=O)c1ccc(S(C)(=O)=O)c(Nc2cc(Nc3ccc4sc(C)nc4c3)ncn2)c1 [Example 199, N-methyl-3-(6-(2-methylbenzo[d]thiazol-5-ylamino)pyrimidin-4-ylamino)-4-(methylsulfonyl)benzenesulfonamide]
CNS(=O)(=O)c1ccc(S(C)(=O)=O)c(Nc2cc(Nc3ccc(Cn4cncn4)cc3)ncn2)c1 [Example 200, N-methyl-4-(methylsulfonyl)-3-[(6-{[4-(1H-1,2,4-triazol-1-ylmethyl)phenyl]amino}-4-pyrimidinyl)amino]benzenesulfonamide]
CNS(=O)(=O)c1cccc(Nc2cc(Nc3ccc(C(=O)NCCOC)cc3)ncn2)c1 [Example 358, 4-{[6-({3-[(methylamino)sulfonyl]phenyl}amino)-4-pyrimidinyl]amino}-N-[2-(methyloxy)ethyl]benzamide]
CNS(=O)(=O)c1ccc(SCC(F)(F)F)c(Nc2cc(Nc3ccc(C(C)C)cc3)ncn2)c1 [Example 127, 3-(6-(4-isopropylphenylamino)pyrimidin-4-ylamino)-N-methyl-4-(2,2,2-trifluoroethylthio)benzenesulfonamide trifluoroacetate]
CNS(=O)(=O)c1cccc(Nc2cc(Nc3cc(OC)cc(C(F)(F)F)c3)ncn2)c1 [Example 188, 3-[6-(3-methoxy-5-trifluoromethyl-phenylamino)-pyrimidin-4-ylamino]-N-methyl-benzenesulfonamide trifluoroacetate]
CNS(=O)(=O)c1cccc(Nc2cc(Nc3ccc4c(C)cc(=O)oc4c3)ncn2)c1 [Example 186, N-methyl-3-[6-(4-methyl-2-oxo-2H-chromen-7-ylamino)-pyrimidin-4-ylamino]-benzenesulfonamide trifluoroacetate]
CNS(=O)(=O)c1cccc(Nc2cc(Nc3ccc4c(=O)cc(C)oc4c3)ncn2)c1 [Example 180, N-methyl-3-[6-(2-methyl-4-oxo-4H-chromen-7-ylamino)-pyrimidin-4-ylamino]-benzenesulfonamide trifluoroacetate]
CNS(=O)(=O)c1cc(Nc2cc(Nc3ccc(Cl)cn3)ncn2)c(OCC(F)(F)F)cc1F [Example 318, 5-({6-[(5-chloro-2-pyridinyl)amino]-4-pyrimidinyl}amino)-2-fluoro-N-methyl-4-[(2,2,2-trifluoroethyl)oxy]benzenesulfonamide trifluoroacetate]
CNS(=O)(=O)c1ccc(SC)c(Nc2cc(Nc3ccc4c(c3)C(=O)N(C)C4=O)ncn2)c1 [Example 171, N-methyl-3-(6-(2-methyl-1,3-dioxoisoindolin-5-ylamino)pyrimidin-4-ylamino)-4-(methylthio)benzenesulfonamide trifluoroacetate]
CNS(=O)(=O)c1cccc(Nc2cc(Nc3cccc(-c4cccc(NS(C)(=O)=O)c4)c3)ncn2)c1 [Example 338, N-methyl-3-{[6-({3′-[(methylsulfonyl)amino]-3-biphenylyl}amino)-4-pyrimidinyl]amino}benzenesulfonamide]
CNS(=O)(=O)c1ccc(OC(C)C(C)C)c(Nc2cc(Nc3ccc(Cl)cc3)ncn2)c1 (centres unmarked) [Example 11, 3-({6-[(4-chlorophenyl)amino]-4-pyrimidinyl}amino)-4-[(1,2-dimethylpropyl)oxy]-N-methylbenzenesulfonamide trifluoroacetate]
CNS(=O)(=O)c1cccc(Nc2cc(Nc3cccc(-c4cccc(NC(C)=O)c4)c3)ncn2)c1 [Example 343, N-(3′-{[6-({3-[(methylamino)sulfonyl]phenyl}amino)-4-pyrimidinyl]amino}-3-biphenylyl)acetamide]
CNS(=O)(=O)c1cccc(Nc2cc(Nc3ccc(OC)c(C(F)(F)F)c3)ncn2)c1 [Example 103, N-methyl-3-[(6-{[4-(methyloxy)-3-(trifluoromethyl)phenyl]amino}-4-pyrimidinyl)amino]benzenesulfonamide trifluoroacetate]
CNS(=O)(=O)c1cccc(Nc2cc(Nc3cc(Cl)cc(Cl)c3)ncn2)c1 [Example 215, 3-({6-[(3,5-dichlorophenyl)amino]-4-pyrimidinyl}amino)-N-methylbenzenesulfonamide trifluoroacetate]
CNS(=O)(=O)c1cccc(Nc2cc(Nc3cccc(S(=O)(=O)NC(C)C)c3)ncn2)c1 [Example 68, 3-{[6-({3-[(methylamino)sulfonyl]phenyl}amino)-4-pyrimidinyl]amino}-N-(1-methylethyl)benzenesulfonamide trifluoroacetate]
CNS(=O)(=O)c1ccc(S(C)(=O)=O)c(Nc2cc(Nc3ccc(C#N)cn3)ncn2)c1.O=C(O)C(F)(F)F [Example 323, 3-({6-[(5-cyano-2-pyridinyl)amino]-4-pyrimidinyl}amino)-N-methyl-4-(methylsulfonyl)benzenesulfonamide trifluoroacetate]
CNS(=O)(=O)c1cccc(Nc2cc(Nc3ccc(OC)c(Cl)c3)ncn2)c1 [Example 232, 3-[(6-{[3-chloro-4-(methyloxy)phenyl]amino}-4-pyrimidinyl)amino]-N-methylbenzenesulfonamide trifluoroacetate]
CNS(=O)(=O)c1cccc(Nc2cc(Nc3cccc(N4CCOCC4)c3)ncn2)c1 [Example 84, N-methyl-3-[(6-{[3-(4-morpholinyl)phenyl]amino}-4-pyrimidinyl)amino]benzenesulfonamide]
CNS(=O)(=O)c1cccc(Nc2cc(Nc3cccc(OCC(=O)N(C)C)c3)ncn2)c1.O=C(O)C(F)(F)F [Example 352, N,N-dimethyl-2-[(3-{[6-({3-[(methylamino)sulfonyl]phenyl}amino)-4-pyrimidinyl]amino}phenyl)oxy]acetamide trifluoroacetate]
CNS(=O)(=O)c1cccc(Nc2cc(Nc3ccc4cn[nH]c4c3)ncn2)c1 [Example 64, 3-{[6-(1H-indazol-6-ylamino)-4-pyrimidinyl]amino}-N-methylbenzenesulfonamide trifluoroacetate]
CNS(=O)(=O)c1ccc(OCC(F)(F)F)c(Nc2cc(Nc3ccc(C(F)(F)F)cc3)ncn2)c1.O=C(O)C(F)(F)F [Example 43, N-methyl-4-[(2,2,2-trifluoroethyl)oxy]-3-[(6-{[4-(trifluoromethyl)phenyl]amino}-4-pyrimidinyl)amino]benzenesulfonamide trifluoroacetate]
CNS(=O)(=O)c1ccc(Cl)c(Nc2cc(Nc3ccc(Cl)cc3)ncn2)c1.O=C(O)C(F)(F)F [Example 12, 4-chloro-3-({6-[(4-chlorophenyl)amino]-4-pyrimidinyl}amino)-N-methylbenzenesulfonamide trifluoroacetate]
